{"sequences": {"note": "By UniProt entry, the sequences of proteins in these tests, tags left out.", "UniProt Q86TM6": "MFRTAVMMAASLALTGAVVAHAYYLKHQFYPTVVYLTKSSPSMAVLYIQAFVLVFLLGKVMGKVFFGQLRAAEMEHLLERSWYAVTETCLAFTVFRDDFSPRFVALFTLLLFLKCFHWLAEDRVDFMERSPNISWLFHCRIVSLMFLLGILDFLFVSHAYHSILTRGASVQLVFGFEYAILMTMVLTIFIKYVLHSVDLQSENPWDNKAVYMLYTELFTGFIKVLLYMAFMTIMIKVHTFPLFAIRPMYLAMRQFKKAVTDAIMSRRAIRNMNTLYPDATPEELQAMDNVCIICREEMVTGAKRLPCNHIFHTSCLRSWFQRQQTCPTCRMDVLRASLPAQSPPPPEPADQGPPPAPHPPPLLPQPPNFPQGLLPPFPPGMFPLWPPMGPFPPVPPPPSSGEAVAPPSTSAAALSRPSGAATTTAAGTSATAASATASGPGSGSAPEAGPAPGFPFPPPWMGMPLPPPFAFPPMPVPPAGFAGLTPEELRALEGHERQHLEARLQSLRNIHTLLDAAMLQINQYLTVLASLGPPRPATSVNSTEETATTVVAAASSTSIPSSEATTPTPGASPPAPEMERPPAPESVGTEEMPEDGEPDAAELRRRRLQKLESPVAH"}, "source": "paper PMC12412560", "target": "T1, hexokinase 2 (Flag-HK2) (UniProt P52789)", "T1 sequence": "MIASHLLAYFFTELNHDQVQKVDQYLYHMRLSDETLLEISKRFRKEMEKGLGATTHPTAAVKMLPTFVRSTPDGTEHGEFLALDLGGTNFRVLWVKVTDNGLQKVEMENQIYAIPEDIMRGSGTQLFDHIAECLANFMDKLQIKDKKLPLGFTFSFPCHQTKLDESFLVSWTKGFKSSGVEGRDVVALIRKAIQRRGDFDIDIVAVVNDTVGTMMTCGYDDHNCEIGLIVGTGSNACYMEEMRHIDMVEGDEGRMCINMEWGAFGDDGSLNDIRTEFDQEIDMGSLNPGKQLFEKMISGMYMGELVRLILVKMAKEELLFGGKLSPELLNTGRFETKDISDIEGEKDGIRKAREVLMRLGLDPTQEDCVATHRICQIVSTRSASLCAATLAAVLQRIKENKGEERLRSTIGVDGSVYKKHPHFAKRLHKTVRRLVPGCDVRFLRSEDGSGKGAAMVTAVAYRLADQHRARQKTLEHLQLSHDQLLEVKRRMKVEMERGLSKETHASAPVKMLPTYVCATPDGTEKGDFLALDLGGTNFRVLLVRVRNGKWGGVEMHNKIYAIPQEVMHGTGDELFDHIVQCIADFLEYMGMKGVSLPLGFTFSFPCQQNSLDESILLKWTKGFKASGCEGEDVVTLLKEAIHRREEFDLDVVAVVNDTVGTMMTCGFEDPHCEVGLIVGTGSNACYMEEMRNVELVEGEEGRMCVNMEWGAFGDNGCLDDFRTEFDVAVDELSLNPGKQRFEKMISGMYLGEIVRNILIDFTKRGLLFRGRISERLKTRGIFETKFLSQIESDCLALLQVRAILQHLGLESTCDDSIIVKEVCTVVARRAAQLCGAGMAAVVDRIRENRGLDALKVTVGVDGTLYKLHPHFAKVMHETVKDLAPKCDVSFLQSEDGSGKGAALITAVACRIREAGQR", "assay": "co-IP; Flag-HK2 overexpressed in KYSE-150 and Eca-109 cells; 500 ug whole cell lysate with 5 ug anti-Flag antibody overnight at 4 °C, IgG as control, Protein A + G agarose, Western blot; also done in PDIA3P1-KD cells (more MARCH8 precipitated) and PDIA3P1-OE cells (less MARCH8 precipitated)", "note": "These are yes or no findings as the source states them, for the method shown. In cells and extracts the contact can be indirect. Some results given as binding are weak or reduced against the parent protein; the word gives no strength. Tags and fused reporters may be left off the sequences shown."}
{"molecule": "SYVN1 (from UniProt Q86TM6 1-617) (enzyme)", "values": [{"measurement": "binding", "value": "no binding"}]}
{"molecule": "membrane-associated RING-CH 8 (MARCH8) (enzyme, UniProt Q5T0T0 1-291) MSMPLHQISAIPSQDAISARVYRSKTKEKEREEQNEKTLGHFMSHSSNISKAGSPPSASAPAPVSSFSRTSITPSSQDICRICHCEGDDESPLITPCHCTGSLHFVHQACLQQWIKSSDTRCCELCKYEFIMETKLKPLRKWEKLQMTSSERRKIMCSVTFHVIAITCVVWSLYVLIDRTAEEIKQGQATGILEWPFWTKLVVVAIGFTGGLLFMYVQCKVYVQLWKRLKAYNRVIYVQNCPETSKKNIFEKSPLTEPNFENKHGYGICHSDTNSSCCTEPEDTGAEIIHV", "values": [{"measurement": "binding", "value": "binds"}]}
